The campaign covered roughly 340,000 compounds. About 6,200 (1.8%) were called active. Inconclusive results, whose numbers are uncertain, are shown with a selection of clear calls. The call rests on the fitted dose curve; in most records, active means well fitted activation curve with a large enough effect; inconclusive means small, poorly fitted or top-dose-only effect; inactive means no such curve, though single readings can be large or run the other way. Potencies of inconclusive entries are doubtful fits and often do not repeat.
Assay: A quantitative high throughput screen for small molecules that induce DNA re-replication in SW480 colon adenocarcinoma cells. Further: nearly all actives have a fitted effect of over 55% in size.
Conditions: Hoechst DNA content imaging, 48 h; series mostly up to 46.1 µM
Summary of the method: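 Cells (250 per well) received 23 nL compound or DMSO by pin tool and were kept 48 hr at 37 C, 5% CO2. Nuclei were then stained with Hoechst for 40 min and scanned for DNA content.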
Potency means the concentration at half of the fitted maximal effect.

Row | SMILES | Potency
1 | O=c1cc(C(F)(F)F)[nH]c2c(C(F)(F)F)cccc12 | inconclusive: 29.1 µM [activator, partial curve, poor fit]
2 | Cc1c(C(=O)Nc2ccc(S(=O)(=O)N(C)C3CCN(C)CC3)cc2)oc2c(Cl)cccc12 | inconclusive: 29.1 µM [activator, single point]
3 | O=C(N/N=C/c1ccc(Cl)cc1Cl)c1n[nH]c2c1CCCC2 | inconclusive: 3.66 µM [activator, partial curve, poor fit]
4 | c1ccc(Nc2cccc3c(Nc4ccccc4)cccc23)cc1 | inconclusive: 18.4 µM [activator, partial curve, poor fit]
5 | Nc1cccc(C#Cc2ccc3c(c2)C(=O)/C(=C/c2ccsc2)O3)c1 | inconclusive: 4.11 µM [activator, single point]
6 | Cc1c(Cl)cccc1NC(=S)NNc1ncc(C(F)(F)F)cc1Cl | inconclusive: 32.6 µM [activator, single point]
7 | Cc1nc(CN(C)Cc2nc(Cc3cccc(F)c3)no2)cs1 | inconclusive: 35.5 µM [activator, single point]
8 | Cc1ccc2sc(N(CCN(C)C)C(=O)c3ccc4ccccc4c3)nc2c1C | inconclusive: 6.51 µM [activator, partial curve, poor fit]
9 | COc1cc(Cl)c(C)cc1NC(=O)COC(=O)CCc1nc2ccccc2c(=O)[nH]1 | inconclusive: 0.0184 µM [activator, full curve, poor fit]
10 | C=CCN1C(=O)C(O)(CC(=O)c2ccccn2)c2ccccc21 (stereo not given) | inconclusive: 29.1 µM [activator, single point]
11 | O=C(/C(=C/O)N=Nc1ccc(Cl)cc1)c1ccncc1 | inconclusive: 29.1 µM [activator, single point]
12 | NS(=O)(=O)c1cc(C(=O)N2CCNC(=O)C2)ccc1Cl | inactive
13 | Cc1ccc(OCC(=O)N2CCN(C(=O)c3ccc([N+](=O)[O-])cc3)CC2)cc1 | inconclusive: 5.8 µM [activator, single point]
14 | N/C(=N\OC(=O)N1CCOCC1)c1ccc(Br)cc1 | inconclusive: 29.1 µM [activator, single point]
15 | Cc1cccc(N2CCN(C(=O)c3ccncc3)CC2)c1C | active: 11.6 µM
16 | O=C(c1ccc(OC2CCN(Cc3ccccn3)CC2)cc1)N1CCCCO1 | inactive
17 | CCC/C(=N/NC(=O)c1ccccc1Cl)c1ccccc1 | inconclusive: 0.1 µM [activator, partial curve, poor fit]
18 | COc1cc(C)ccc1OCCCOc1ccccc1Br | inactive
19 | COCCSc1nnc(NC(=O)CCS(=O)(=O)Cc2ccccc2)s1 | inconclusive: 29.1 µM [activator, single point]
20 | Cc1ccc(CNC(=O)c2cc(=O)c3ccc(C)cc3o2)cc1 | inconclusive: 29.1 µM [activator, single point]

Row | SMILES | Potency
21 | Cc1ccc2c(c1)N(CC(=O)OCC(=O)NCc1ccccc1)C(=O)CO2 | inconclusive: 0.366 µM [activator, full curve, poor fit]
22 | O=C(NN=Cc1cc([N+](=O)[O-])ccc1O)c1cccc2ccccc12 | inconclusive: 20.6 µM [activator, single point]
23 | CNC(=S)N(Cc1cccs1)Cc1cc2cc(OC)c(OC)cc2[nH]c1=O | inconclusive: 23.1 µM [activator, single point]
24 | Nc1ccc2c(c1)Cc1cc(N)c(Br)cc1-2 | inconclusive: 18.4 µM [activator, single point]
25 | CCOC(=O)c1c(NC(=O)/C=C/c2ccco2)sc(C)c1C | inconclusive: 2.91 µM [activator, full curve]
26 | COc1cccc(CNc2ccc(N3CCCCC3)cc2)c1OC | inconclusive: 29.1 µM [activator, single point]
27 | CCC(C)C(=O)OCC1(c2ccc(C)cc2OC(=O)C(C)C)CO1 (stereo not given) | inconclusive: 0.82 µM [activator, full curve, poor fit]
28 | Cc1ccc(C)c(S(=O)(=O)ON2C(=O)c3ccccc3C2=O)c1 | inconclusive: 4.61 µM [activator, full curve]
29 | COc1cc(-c2csc(CCn3nc(C)cc3C)n2)cc(OC)c1OC | inconclusive: 29.1 µM [activator, single point]
30 | CCN(C[C@H]1N[C@@](C)(C(=O)OC)[C@H]2C(=O)N(Cc3ccccc3)C(=O)[C@@H]12)C(=O)Nc1ccc(Cl)cc1 | inconclusive: 20.6 µM [activator, partial curve, poor fit]
31 | CNc1nc(OC)nc(N(C#N)CN2C(=O)c3ccccc3S2(=O)=O)n1 | inconclusive: 29.1 µM [activator, single point]
32 | Cc1cccc(OCC(O)Cn2c(=N)n(Cc3ccccc3)c3ccccc32)c1 (stereo not given) | inconclusive: 23.1 µM [activator, single point]
33 | O=C(CSc1cccc2cccnc12)Nc1ccccc1F | inconclusive: 29.1 µM [activator, single point]
34 | Cc1cc(C)c(S(=O)(=O)/N=C2\C=C(NS(=O)(=O)c3ccccc3)C(=O)c3ccccc32)c(C)c1 | inactive
35 | CC(=O)CSc1nc2ccc(Nc3nc(N4CCOCC4)nc(N4CCOCC4)n3)cc2s1 | inconclusive: 29.1 µM [activator, single point]
36 | CCOC(=O)N1CCN(Cc2nc3cc(NC(=O)c4cccs4)ccc3n2CC)CC1 | inconclusive: 13 µM [activator, single point]
37 | CCC(C)Oc1ccccc1C1CC(=O)NC2=C1C(=O)CCC2 (stereo not given) | active: 18.4 µM
38 | CC(=O)c1ccc(N2C(=NC(=O)CCc3ccccc3)SC3CS(=O)(=O)CC32)cc1 (stereo not given) | inconclusive: 6.51 µM [activator, single point]
39 | C=CCn1c(=O)c2ccccc2n2c(SCC(=O)Nc3sc(C)c(CC)c3C(=O)OCC)nnc12 | inactive
40 | CCC(C(=O)O)C1OC(C(C)C(O)C(C)C(=O)C(CC)C2OC3(C=CC(O)C4(CCC(C)(C5CCC(O)(CC)C(C)O5)O4)O3)C(C)CC2C)C(C)CC1C (stereo not given) | inconclusive: 0.841 µM [activator, full curve]

Two records drawn at random from the list so far, as already listed:
Row | SMILES | Potency
35 | CC(=O)CSc1nc2ccc(Nc3nc(N4CCOCC4)nc(N4CCOCC4)n3)cc2s1 | inconclusive: 29.1 µM [activator, single point]
22 | O=C(NN=Cc1cc([N+](=O)[O-])ccc1O)c1cccc2ccccc12 | inconclusive: 20.6 µM [activator, single point]

Source: PubChem BioAssay AID624297 (National Center for Advancing Translational Sciences (NCATS), 2012)
